This note sets out measurements from paper PMC4673492.

Data set [1] addresses GST-FMRP (mouse) (UniProt P35922). Put plainly: biotin pull-down. To be noted: Pull-down: HEPES-KOH pH 7.5 buffer B (MgCl2, NP-40, DTT), final 120 mM KCl, 30 min, room temperature; recombinant protein; protein details: GST; label: biotin; probe letters rebuilt from the primers and the genome.
The target of data set [2] is T1, GST-TRF2-S (UniProt F6KWE7).
T1 sequence (looked up, limits assumed): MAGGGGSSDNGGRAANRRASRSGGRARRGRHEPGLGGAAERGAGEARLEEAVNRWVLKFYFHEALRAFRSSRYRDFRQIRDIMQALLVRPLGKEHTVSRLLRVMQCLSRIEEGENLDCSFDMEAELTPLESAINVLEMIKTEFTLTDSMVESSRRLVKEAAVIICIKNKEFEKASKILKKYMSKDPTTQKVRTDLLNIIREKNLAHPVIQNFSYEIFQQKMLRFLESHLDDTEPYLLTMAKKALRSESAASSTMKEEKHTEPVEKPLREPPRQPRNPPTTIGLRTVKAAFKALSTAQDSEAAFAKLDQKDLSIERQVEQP
Put plainly: biotin pull-down. The following applies: Pull-down: HEPES-KOH pH 7.5 buffer B (MgCl2, NP-40, DTT), final 120 mM KCl, 30 min, room temperature, recombinant protein, protein details: GST, label: biotin.

Data set [3] deals with GST-FMRP (mouse) (UniProt P35922). Put plainly: EMSA. To be noted: EMSA: 10 mM Tris-HCl pH 8.0, 100 mM KCl, 0.3 mM MgCl2, 10 mM DTT, 1 h, room temperature; recombinant protein; protein details: GST; label: biotin; probe letters rebuilt from the primers and the genome. For orientation: In EMSA bound probe runs differently from free probe, usually more slowly.
For data set [4], the target named is T1, GST-TRF2-S. Put plainly: UV cross-linking, RNase T1 footprint sequencing. To be noted: 5 mM MgCl2; recombinant protein; protein details: GST; label: biotin; probe letters rebuilt from the primers and the genome.
Where [5] appears, read: probe letters rebuilt from the primers and the genome.
Where [6] appears, read: letters put together from the description.

For at least one entry, the source does not settle the construct or the ends of the probe. For some of these results: A negative result means that nothing was seen under these conditions. For some of these results: At least one verdict was read from the data and is not stated in words by the source. For some of these results: Weaker means in comparison with the reference protein, sequence or condition of that experiment. For some of these results: Where a protein sequence is shown, tags need not be part of it.

Regarding “GGGAGAAUGGCGGGAGGAGGCGGGAGCAGCGACAACGGCGGGAGGGCGGCGAACCGGCGAGCAUCGCGCAGCGGCGGGAGGGCUCGACGGGGGCGGCACGAGCCGGGGCUGGGAGGCGCGGCAGAGCGGGGCGCGGGGGAAGCUCGUCUGGAGGAGGCGGUCAACCGCUGGGUGCUCAAGUUCUACUUCCACGAGGCGCUGCGGGCCUUUCGGAGUAGCCGGUACCGGGACUUCAGGCAGAUCCGGGACAUCAUGCAGGCGUUGCUUGUCAGGCCCUUGGGGAAGGAGCAUACGGUGUCCCGGUUGCUGCGGGUUAUGCAGUGUCUAUCGCGCAUUGAAGAAGGAGAAAAUUUAGACUGUUCCUUUGAUAUGGAGGCCGAGCUCACACCCCUGGAGUCAGCUAUCAAUGUGCUGGAGAUGAUUAAAACAGAGUUCACACUGACAGACUCAAUGGUUGAAUCCAGCAGGAGACUGGUGAAGGAGGCUGCUGUCAUUAUUUGUAUCAAAAACAAAGAAUUUGAAAAGGCUUCAAAAAU [Trf2-S-CR1]”, the binding result with GST-FMRP (mouse) [1] was “no binding”; with GST-TRF2-S [2] (setting [5]), “binds”; with GST-FMRP (mouse) [3] it was “no binding”; in the data set with GST-TRF2-S [4], “binds”.

As for “GGGAGACCAUGGGCUUCAUUCUAAUGUAUGACAUCACCAAUGAGGAGUCCUUCAAUGCAGUGCAGGACUGGUCCACUCAGAUCAAAACUUACUCAUGGGACAAUGCCCAGGUGCUGCUGGUGGGGAACAAGUGCGACAUGGAGGACGAGCGAGUGGUGUCCUCAGAACGAGGCCGGCAGCUGGCCGACCACCUGGGCUUUGAGUUCUUUGAGGCCAGCGCCAAGGACAACAUUAAUGUCAAGCAGACCUUUGAACGUCUGGUGGACGUGAUCUGUGAGAAGAUGUCGGAGUCCCUAGAUACUGCAGACCCUGCAGUCACGGGUGCCAAGCAGGGCCCACAGCUCACCGACCAGCAGGCACCACCUCAUCAGGAUUGCGCCUGCUGAACCACACUUCCCUUCCCCACC [Rab3a-CR2]”, the binding result in the data set with GST-FMRP (mouse) [1] was “no binding”; in the data set with GST-TRF2-S [2] (setting [5]) it was “binds”; with GST-FMRP (mouse) [3], “no binding”.

As to “GGGAGAGCAGGGCCGGGCGGGAGCGCAGGGGACCUGAGGGCCCGAGGCCCGGACAUGGGGCCCUCCAGCCCCACCACUCGCGGUCAGGGUCGCCGCCGGGGCCCGCCGCCGCUGCCGCUGUUGCUACCACUGUCGCUGCUGCUUCUGCGCGCGCAGCUCGCCGUCGGGAACCUGGCUGGUGGGAGCCCCAGCGCGGCCGAGGCUCCGGGGUCGGCUCAAGUGGCUGGACUAUGUGGGCGUCUCACCCUUCACCGAGACCUGCGCACCGGCCGCUGGGAACCAGACCCACAGCGAUCACGACGCUGUCUUCUGGACCCGCAGCGCGUGCUGGAGUACUGCAGACAGAUGUACCCAGAGCUGCACAUAGCUCGUGUGGAGCAGGCUGCACAGGCCAUCCCGAUGGAGCGCUGGUGUGGGGGUACCCGAAGUGGCAGAUGUGCCCACCCCCACCAUGAGGUUGUGCCCUUCCAUUGCCU [Aplp1-5'CR1]”, the binding result is “no binding” in the data set with GST-FMRP (mouse) [1] and “binds” with GST-TRF2-S [2] (setting [5]).

“GGGAGAGGUCUGCGGGCCUAAGCCUCAUCCCGGUACCGGGACUUCACCGUCUAGCG [Trf2-S Clip-MT1+2]”: in the data set with GST-TRF2-S [2] (setting [6]), the binding result is “binds more weakly”.

Regarding “GGGAGAGGUCUGCGGGCCUAAGCCUCAUCCCGGUACCGGGACUUCAGGCAGAUCCG [Trf2-S Clip-MT1]”, the binding result with GST-TRF2-S [2] (setting [6]) is “binds more weakly”.

As for “GGGAGAGGUCUGCGGGCCUUUCGGAGUAGCCGGUACCGGGACUUCACCGUCUAGCG [Trf2-S Clip-MT2]”, the binding result with GST-TRF2-S [2] (setting [6]) is listed as “binds more weakly”.

As for “GGGAGAGGUCUGCGGGCCUUUCGGAGUAGCCGGUACCGGGACUUCAGGCAGAUCCG [Trf2-S Clip-WT]”, in the data set with GST-TRF2-S [2] (setting [6]), the binding result is “binds”.
